According to publication PMC7819943, “Rice protein-binding microarrays: a tool to detect cis-acting elements near promoter regions in rice”:
This is one part of the list.

Chains of the proteins cited; added tags and fusions are not shown.
UniProt Q0JBA9, entry or part of it: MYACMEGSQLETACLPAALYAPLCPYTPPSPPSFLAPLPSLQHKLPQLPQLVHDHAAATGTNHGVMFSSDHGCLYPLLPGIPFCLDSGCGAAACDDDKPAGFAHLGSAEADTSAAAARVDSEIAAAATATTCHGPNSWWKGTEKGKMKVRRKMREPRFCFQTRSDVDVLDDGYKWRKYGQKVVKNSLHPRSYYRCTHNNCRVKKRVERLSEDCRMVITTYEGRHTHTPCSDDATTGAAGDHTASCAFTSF

The sequences below were run against OsWRKY34 (Oryza sativa, UniProt Q0JBA9 1-250) (assay: protein-binding microarray (RPBM); PBS, 2% BSA, 51.3 ng/ul salmon testes DNA, 50 uM zinc acetate, 200 nM TF, 25 C, 1 h; high values mean tight binding). Details: protein: recombinant; tags: N-terminal polyhistidine and DsRed monomer fusion (pET32a); label: CyDye5-dUTP incorporated in the synthesized complementary strand; 3' TTTTT single-stranded linker to array surface; dsDNA, one strand shown.
Method in brief: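 An Axon 4000B scanner gave the binding signal as per-feature fluorescence intensity in arbitrary units. This followed washing of a custom Agilent array that had been incubated for 1 h at 25 °C with 200 nM protein in PBS, 2% BSA, salmon testes DNA and 50 µM zinc acetate. The proteins were transcription factors fused at the N-terminus to polyhistidine and DsRed, expressed in E. coli BL21-CodonPlus and purified on Ni–NTA.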

Sequence | binding signal
GGCACGGCGACTACCGAATTTCGATTTTTCTTTCTTTCTTCGGAGTCACCTAGTGCAG | 9120 fluorescence intensity (a.u.)
TTCCGGTTAATTCGCTCCTACGCGCACCCACACCACCACCCGGAGTCACCTAGTGCAG | 8700 fluorescence intensity (a.u.)
GATGACCCATGATTCCGCGGCGTACCATCTGTTCTGTCAACGGAGTCACCTAGTGCAG | 8960 fluorescence intensity (a.u.)
CATCGCCGCCATCACTGATCCGCCGCTCCCCATCTTCTCCCGGAGTCACCTAGTGCAG | 9310 fluorescence intensity (a.u.)
ATTTCTATTGACTCCATGTGTTGGTCTCTTTAGTACTCCACGGAGTCACCTAGTGCAG | 8420 fluorescence intensity (a.u.)
CGACTCTAAGCATTGTCATATGTAGCAATTACGTTTCCCTCGGAGTCACCTAGTGCAG | 8440 fluorescence intensity (a.u.)
GACTATCCTTGTCGTGACCACACCTTCGTGAGCTCGTTGTCGGAGTCACCTAGTGCAG | 8970 fluorescence intensity (a.u.)
TTAATGTATGACGCCGTTGACTTTTTAATCAACGTTTGACCGGAGTCACCTAGTGCAG | 25900 fluorescence intensity (a.u.)
GGAACGTGACAGTTTTGCAATCCTCTGTTTTACACTTACACGGAGTCACCTAGTGCAG | 10600 fluorescence intensity (a.u.)
CTGGCATCCTCCTCCTCTGATCTCCTCCTCGGTCACTTCACGGAGTCACCTAGTGCAG | 8430 fluorescence intensity (a.u.)
CTCCTTGGCCCTCGCCGCGGTCGTCTCCTCCGCCGCCACGCGGAGTCACCTAGTGCAG | 9220 fluorescence intensity (a.u.)
TAGAATCTCTTTGATTTCTTGTGCTTTTTCTTGCTTTTTCCGGAGTCACCTAGTGCAG | 9670 fluorescence intensity (a.u.)
CAAGGTTGCATTATATCTGGTTTTACGGTTTAAGGATTTTCGGAGTCACCTAGTGCAG | 8680 fluorescence intensity (a.u.)
GTATGTCTAGATTTGTAGTGTTAGGATGCAGGTTAGTTTTCGGAGTCACCTAGTGCAG | 12600 fluorescence intensity (a.u.)
CTTAATTAGCTAGCTAGCCGCTCAAGTCATATATATATATCGGAGTCACCTAGTGCAG | 8280 fluorescence intensity (a.u.)
TGCACTGCACGGTGGTGCGCTTGCCCGCGCTTCGGCCGGCCGGAGTCACCTAGTGCAG | 10500 fluorescence intensity (a.u.)
TTTGATTTTCGTTTTGTTTTTATTTGGCCCACCACAAGTCCGGAGTCACCTAGTGCAG | 9320 fluorescence intensity (a.u.)
ACTCCGCACCCGCCCCACCTTGGCGTATAGATGGCCATAACGGAGTCACCTAGTGCAG | 9790 fluorescence intensity (a.u.)
GCAGTCGGTCAGCCTCAATCCAAACCAAAAGCTTATTTGCCGGAGTCACCTAGTGCAG | 8500 fluorescence intensity (a.u.)
CCATTCTACCTGTATTTTAAACCTGCATCCGCAACTGGCACGGAGTCACCTAGTGCAG | 9610 fluorescence intensity (a.u.)
ACATGTCTTTGTACTATTTTCTTAATTCTTATCTTAGGTTCGGAGTCACCTAGTGCAG | 10300 fluorescence intensity (a.u.)
TCTGTCTAGTGATATTTGTTGAGATTGATTGCATATCAGACGGAGTCACCTAGTGCAG | 8930 fluorescence intensity (a.u.)
TACACATTTTTTTTATGTCCTGTAGCAAATTTTGTCTTTTCGGAGTCACCTAGTGCAG | 12500 fluorescence intensity (a.u.)
CCTGGTGTTGTTGGTTCGATCGTCGATATCAAGAATTTGACGGAGTCACCTAGTGCAG | 8060 fluorescence intensity (a.u.)
TTTCACACGTCCACGATTTGCAACTGATTTTATCACGTTCCGGAGTCACCTAGTGCAG | 9530 fluorescence intensity (a.u.)
ACCCCGCACCAAACCCTAGCCGTCTCGCCCACCCACGCGCCGGAGTCACCTAGTGCAG | 10500 fluorescence intensity (a.u.)
CTCATATGCTTTCCCTTTCTCAGCTCCAGCTCATTCGCTACGGAGTCACCTAGTGCAG | 8100 fluorescence intensity (a.u.)

Quoted from the listing:
binding signal, ATTTCTATTGACTCCATGTGTTGGTCTCTTTAGTACTCCACGGAGTCACCTAGTGCAG reads 8420 fluorescence intensity (a.u.)
binding signal, GACTATCCTTGTCGTGACCACACCTTCGTGAGCTCGTTGTCGGAGTCACCTAGTGCAG reads 8970 fluorescence intensity (a.u.)
binding signal, GTATGTCTAGATTTGTAGTGTTAGGATGCAGGTTAGTTTTCGGAGTCACCTAGTGCAG reads 12600 fluorescence intensity (a.u.)

The list continues:

Sequence | binding signal
CTTAATATGTGTTAAACTTTTCAATGTGTTTCCTATTGAACGGAGTCACCTAGTGCAG | 8250 fluorescence intensity (a.u.)
GCGCCCGTCTCTCCGTAACCGTGCACCACTCCACCGCGCCCGGAGTCACCTAGTGCAG | 10700 fluorescence intensity (a.u.)
ACCCTGACCCCTCCTCGTCAGTTTGCCCGCCGCGGCGCCGCGGAGTCACCTAGTGCAG | 10700 fluorescence intensity (a.u.)
GTGTGGTGAAGGTGGCAGAGGAGTTGATGTTTTAGTTGAGCGGAGTCACCTAGTGCAG | 8860 fluorescence intensity (a.u.)
TCTTCGTCGACACCACCCCAGCCGGTGTCCCCACACGCTCCGGAGTCACCTAGTGCAG | 8980 fluorescence intensity (a.u.)
CAATCAACAGCTGTTGCATATCATGCCATGTTTCGTAATTCGGAGTCACCTAGTGCAG | 8720 fluorescence intensity (a.u.)
AGTTGTTCTTTATTTCTCAGATTTTCCTTAGGCATTGTTCCGGAGTCACCTAGTGCAG | 12500 fluorescence intensity (a.u.)
CAAACTGCATTGTTTCACTTGTCTGCAGCTAGTTTCAATGCGGAGTCACCTAGTGCAG | 8200 fluorescence intensity (a.u.)
TCTTTCATTTGGCCTACATCTTTGCAAGCGAAGTCTTTATCGGAGTCACCTAGTGCAG | 12900 fluorescence intensity (a.u.)
TGAAACCAAGATATTTGCAGACAAAGCCGTCTTTTTTATTCGGAGTCACCTAGTGCAG | 8580 fluorescence intensity (a.u.)
ACCAAACCGCACATGACACACATTCACACAACCGCACGCACGGAGTCACCTAGTGCAG | 8230 fluorescence intensity (a.u.)
CAATTCACGCCACCCGCTCCGCCTCTCGCCGCCTCGACCGCGGAGTCACCTAGTGCAG | 11000 fluorescence intensity (a.u.)
GGCCTGGAGCTCAGTCAAACAGTTTCAGCTCAGCTCTATCCGGAGTCACCTAGTGCAG | 8520 fluorescence intensity (a.u.)
GGGGACCCAGCCGATTCGCCCAGCCACGCCACCGAGCGCTCGGAGTCACCTAGTGCAG | 10600 fluorescence intensity (a.u.)
TGCTCTTTTTTTCTTGATTATAACCTTCCGGGGTAGTTTTCGGAGTCACCTAGTGCAG | 8720 fluorescence intensity (a.u.)
GGTGTGTGTTAGTACAATGAGTGATTGCTATGTGTAGATACGGAGTCACCTAGTGCAG | 10100 fluorescence intensity (a.u.)
GGTGTGCAATCAACTTGTTGCCGTCGTGTGCAATGGTTCGCGGAGTCACCTAGTGCAG | 8170 fluorescence intensity (a.u.)
TCTTCTTCTTCTCGATCTTCTTTCTCTCGTTCACACCTCACGGAGTCACCTAGTGCAG | 10400 fluorescence intensity (a.u.)
TCCTCCAGGGCATACAGCATCATTTGCAGGTCTCTCAACTCGGAGTCACCTAGTGCAG | 8070 fluorescence intensity (a.u.)
TGCCAATACAAAATTTCTGTACTGTAGAATCGATGTTTACCGGAGTCACCTAGTGCAG | 8260 fluorescence intensity (a.u.)
AAGGTGCATTTGGGGTGGTGTTTCCGCTCGGAGATGGTCACGGAGTCACCTAGTGCAG | 11400 fluorescence intensity (a.u.)
TTCCAGTTAGCAACGCATTGAGCCATTTTTACATATTCTGCGGAGTCACCTAGTGCAG | 57100 fluorescence intensity (a.u.)
ACTTCTCGGATTCCTTCCGAGCCTGAACCCTGAGTTCCTCCGGAGTCACCTAGTGCAG | 9180 fluorescence intensity (a.u.)
CCTTGCACGGCTCTTCCTGCTAGGGGTGGGCATTCGGTCTCGGAGTCACCTAGTGCAG | 9700 fluorescence intensity (a.u.)
GGCCTCGTCCTTCTCTTCAACTGGGTTCTTCACCGGCTCACGGAGTCACCTAGTGCAG | 8540 fluorescence intensity (a.u.)
TTTTTTTACTGTTTCACTTAGCTCACGCTCGAGTCACAGTCGGAGTCACCTAGTGCAG | 9000 fluorescence intensity (a.u.)
TTCTTAGTTTGCTCTAAACACATACTCCCTCTATTTTATACGGAGTCACCTAGTGCAG | 10000 fluorescence intensity (a.u.)
